Where a name gives a salt, the structure may show the parent alone. Read-outs that look alike come from different tables or passages of the source.
Legend:
physchem = conditions: 25 °C, pH 3, aqueous buffer
[1] = single oral dose of 5 mg, cited from earlier work
[2] = steady state, cited from earlier work

| SMILES | solubility (pH 6) | solubility (pH 8) | solubility (physchem) | tmax ([1]; first volunteer) | tmax ([1]; second volunteer) | AUC(0-24) ([2]; 5 mg) | Cmax ([2]; 5 mg) | AUC(0-24) ([2]; 10 mg) | Cmax ([2]; 10 mg) |
| --- | --- | --- | --- | --- | --- | --- | --- | --- | --- |
| COc1cc2c(cc1OC)C(=O)C(CC1CCN(Cc3ccccc3)CC1)C2 (stereo not drawn) [donepezil hydrochloride, 1-benzyl-4-((5,6-dimethoxy-1-indanon)-2-yl)methylpiperidine hydrochloride] | 11 to 16 mg/mL | ≤ 0.1 mg/mL | 11 to 16 mg/mL | 4 h | 2 h |  |  |  |  |
| COc1cc2c(cc1OC)C(=O)C(CC1CCN(Cc3ccccc3)CC1)C2 (stereo not drawn) [Donepezil, 1-benzyl-4-((5,6-dimethoxy-1-indanon)-2-yl)methylpiperidine] |  |  |  |  |  | 634.8 ± 92.2 ng·h/mL | 34.1 ± 7.3 ng/mL | 1127.8 ± 195.9 ng·h/mL | 60.5 ± 10.0 ng/mL |

Reference: patent US20070129402A1, “Sustained release formulations” (Eisai Research Institute, priority 2004, published 2007)
